Measurements from the supplement of paper PMC4604168 (melanoma cell lines).
This is one part of the list. Single values are uncertain, as repeats are few or missing.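 Cells were imaged in 1,536-well plates, and nuclei stained with an antibody against cleaved PARP were counted against all DNA-stained nuclei to give the apoptosis fraction. Screening doses were chosen to leave most cells alive, and resting and induced cleaved-PARP levels differ strongly between cell lines.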

tested on: CBRC016 (line from a melanoma biopsy); assay: cleaved PARP positive nuclei fraction relative to DMSO control; melanoma cells; higher = more apoptosis; settings: library dose: low library concentration; 72 h

Compound | cleaved PARP positive nuclei fraction [%]
Cn1cc(C2=C(c3cn(C4CCN(Cc5ccccn5)CC4)c4ccccc34)C(=O)NC2=O)c2ccccc21 [Enzastaurin] + O=C(O)[C@@H]1[O][Sb](=[O])([O][Sb]2(=[O])[O][C@H]([C@H](O)CO)[C@H](O)[C@H](C(=O)O)[O]2)[O][C@H]([C@H](O)CO)[C@@H]1O [stibogluconate] (first compound 0.8 µM, partner dose 2 µM) | 115
C[C@]12O[C@H](C[C@]1(O)CO)n1c3ccccc3c3c4c(c5c6ccccc6n2c5c31)CNC4=O [Lestaurtinib] + CNC(=O)c1cc(Oc2ccc(NC(=O)Nc3ccc(Cl)c(C(F)(F)F)c3)cc2)ccn1 [sorafenib] (first compound 0.004 µM, partner dose 0.4 µM) | 196
CC1(C)CCC(c2ccc(Cl)cc2)=C(CN2CCN(c3ccc(C(=O)NS(=O)(=O)c4ccc(N[C@H](CCN5CCOCC5)CSc5ccccc5)c(S(=O)(=O)C(F)(F)F)c4)cc3)CC2)C1 + Cn1cc(C2=C(c3cn(C4CCN(Cc5ccccn5)CC4)c4ccccc34)C(=O)NC2=O)c2ccccc21 [Enzastaurin] (first compound 0.4 µM, partner dose 0.8 µM) | 813
Cn1cc(C2=C(c3cn(C4CCN(Cc5ccccn5)CC4)c4ccccc34)C(=O)NC2=O)c2ccccc21 [Enzastaurin] + O=C(O)c1ccc2c(c1)nc(Nc1cccc(Cl)c1)c1ccncc12 [CX4945] (first compound 0.8 µM, partner dose 0.4 µM) | 85.9
N.N.[Cl][Pt][Cl] [cisplatin] + CNC(=O)c1cc(Oc2ccc(NC(=O)Nc3ccc(Cl)c(C(F)(F)F)c3)cc2)ccn1 [sorafenib] (first compound 1.6 µM, partner dose 0.4 µM) | 275
N.N.[Cl][Pt][Cl] [cisplatin] + CS(=O)(=O)CCNCc1ccc(-c2ccc3ncnc(Nc4ccc(OCc5cccc(F)c5)c(Cl)c4)c3c2)o1 [lapatinib] (first compound 1.6 µM, partner dose 0.8 µM) | 97
C[C@]12O[C@H](C[C@]1(O)CO)n1c3ccccc3c3c4c(c5c6ccccc6n2c5c31)CNC4=O [Lestaurtinib] + Cc1cc(Nc2cc(N3CCN(C)CC3)nc(/C=C/c3ccccc3)n2)n[nH]1 [ENMD2076] (first compound 0.004 µM, partner dose 0.04 µM) | 28.2
C[As](C)SC[C@H](NC(=O)CC[C@H](N)C(=O)O)C(=O)NCC(=O)O [Darinaparsin] + Cn1nnc2c(C(N)=O)ncn2c1=O [temozolomide] (first compound 0.4 µM, partner dose 2 µM) | 173
CCCCCCCCCCCCCCCCCCOP(=O)([O-])OC1CC[N+](C)(C)CC1 [Perifosine] + Cn1cc(C2=C(c3cn(C4CCN(Cc5ccccn5)CC4)c4ccccc34)C(=O)NC2=O)c2ccccc21 [Enzastaurin] (first compound 0.4 µM, partner dose 0.8 µM) | 93.2
C=CCNC1=C2C[C@@H](C)C[C@H](OC)[C@H](O)[C@@H](C)/C=C(\C)[C@H](OC(N)=O)[C@@H](OC)/C=C\C=C(/C)C(=O)NC(=CC1=O)C2=O [Tanespimycin] + C[As](C)SC[C@H](NC(=O)CC[C@H](N)C(=O)O)C(=O)NCC(=O)O [Darinaparsin] (first compound 0.002 µM, partner dose 0.4 µM) | 67.3
Cn1sc(=O)n(Cc2ccccc2)c1=O + C[As](C)SC[C@H](NC(=O)CC[C@H](N)C(=O)O)C(=O)NCC(=O)O [Darinaparsin] (first compound 0.4 µM, partner dose 0.4 µM) | 128
CC1(C)CCC(c2ccc(Cl)cc2)=C(CN2CCN(c3ccc(C(=O)NS(=O)(=O)c4ccc(N[C@H](CCN5CCOCC5)CSc5ccccc5)c(S(=O)(=O)C(F)(F)F)c4)cc3)CC2)C1 + C[As](C)SC[C@H](NC(=O)CC[C@H](N)C(=O)O)C(=O)NCC(=O)O [Darinaparsin] (first compound 0.4 µM, partner dose 0.4 µM) | 2670
Cc1cc(Nc2cc(N3CCN(C)CC3)nc(Sc3ccc(NC(=O)C4CC4)cc3)n2)n[nH]1 [Tozasertib] + C[As](C)SC[C@H](NC(=O)CC[C@H](N)C(=O)O)C(=O)NCC(=O)O [Darinaparsin] (first compound 0.006 µM, partner dose 0.4 µM) | 148
CS(=O)(=O)c1ccc(C(=O)Nc2ccc(Cl)c(-c3ccccn3)c2)c(Cl)c1 [vismodegib] + N.N.[Cl][Pt][Cl] [cisplatin] (first compound 1 µM, partner dose 1.6 µM) | 94.2
Cc1cc(Nc2cc(N3CCN(C)CC3)nc(/C=C/c3ccccc3)n2)n[nH]1 + C[As](C)SC[C@H](NC(=O)CC[C@H](N)C(=O)O)C(=O)NCC(=O)O [Darinaparsin] (first compound 0.04 µM, partner dose 0.4 µM) | 91
O=C(Nc1cc(C(F)(F)F)cc(C(F)(F)F)c1)c1cc(Cl)ccc1O + C[As](C)SC[C@H](NC(=O)CC[C@H](N)C(=O)O)C(=O)NCC(=O)O [Darinaparsin] (first compound 0.016 µM, partner dose 0.4 µM) | 78.4
Cc1cn(-c2cc(NC(=O)c3ccc(C)c(Nc4nccc(-c5cccnc5)n4)c3)cc(C(F)(F)F)c2)cn1 [nilotinib] + C[C@]12O[C@H](C[C@]1(O)CO)n1c3ccccc3c3c4c(c5c6ccccc6n2c5c31)CNC4=O [Lestaurtinib] (first compound 0.2 µM, partner dose 0.004 µM) | 131
C[As](C)SC[C@H](NC(=O)CC[C@H](N)C(=O)O)C(=O)NCC(=O)O [Darinaparsin] + Cn1c(Nc2ccc(C(F)(F)F)cc2)nc2cc(Oc3ccnc(-c4ncc(C(F)(F)F)[nH]4)c3)ccc21 [CHIR265] (first compound 0.4 µM, partner dose 0.08 µM) | 46.8
Cn1cc(C2=C(c3cn(C4CCN(Cc5ccccn5)CC4)c4ccccc34)C(=O)NC2=O)c2ccccc21 [Enzastaurin] + CN(c1ncccc1CNc1nc(Nc2ccc3c(c2)CC(=O)N3)ncc1C(F)(F)F)S(C)(=O)=O [PF562271] (first compound 0.8 µM, partner dose 0.08 µM) | 206
C[C@]12O[C@H](C[C@]1(O)CO)n1c3ccccc3c3c4c(c5c6ccccc6n2c5c31)CNC4=O [Lestaurtinib] + O=C(O)c1ccc2c(c1)nc(Nc1cccc(Cl)c1)c1ccncc12 [CX4945] (first compound 0.004 µM, partner dose 0.4 µM) | 140
CC(=O)c1c(C)c2cnc(Nc3ccc(N4CCNCC4)cn3)nc2n(C2CCCC2)c1=O [palbociclib] + C[As](C)SC[C@H](NC(=O)CC[C@H](N)C(=O)O)C(=O)NCC(=O)O [Darinaparsin] (first compound 0.04 µM, partner dose 0.4 µM) | 89.9
NC1(c2ccc(-c3nc4ccn5c(=O)[nH]nc5c4cc3-c3ccccc3)cc2)CCC1 + N.N.[Cl][Pt][Cl] [cisplatin] (first compound 0.4 µM, partner dose 1.6 µM) | 33.9
Cc1cc(Nc2cc(N3CCN(C)CC3)nc(Sc3ccc(NC(=O)C4CC4)cc3)n2)n[nH]1 [Tozasertib] + Cn1cc(C2=C(c3cn(C4CCN(Cc5ccccn5)CC4)c4ccccc34)C(=O)NC2=O)c2ccccc21 [Enzastaurin] (first compound 0.006 µM, partner dose 0.8 µM) | 158
CC(C)C[C@H](NC(=O)[C@H](Cc1ccccc1)NC(=O)c1cnccn1)B(O)O [Bortezomib] + N.N.[Cl][Pt][Cl] [cisplatin] (first compound 0.001 µM, partner dose 1.6 µM) | 324
Nc1nc(F)nc2c1ncn2[C@@H]1O[C@H](CO)[C@@H](O)[C@@H]1O [fludarabine] + C[As](C)SC[C@H](NC(=O)CC[C@H](N)C(=O)O)C(=O)NCC(=O)O [Darinaparsin] (first compound 0.2 µM, partner dose 0.4 µM) | 96.4
Cn1cc(C2=C(c3cn(C4CCN(Cc5ccccn5)CC4)c4ccccc34)C(=O)NC2=O)c2ccccc21 [Enzastaurin] + CCN(CC)CCNC(=O)c1c(C)[nH]c(/C=C2\C(=O)Nc3ccc(F)cc32)c1C [sunitinib] (first compound 0.8 µM, partner dose 0.4 µM) | 77
C[C@]12O[C@H](C[C@]1(O)CO)n1c3ccccc3c3c4c(c5c6ccccc6n2c5c31)CNC4=O [Lestaurtinib] + Nc1cccc2c1CN(C1CCC(=O)NC1=O)C2=O [lenalidomide] (first compound 0.004 µM, partner dose 1 µM) | 63.9
N.N.[Cl][Pt][Cl] [cisplatin] + Cn1nnc2c(C(N)=O)ncn2c1=O [temozolomide] (first compound 1.6 µM, partner dose 2 µM) | 221
Cn1cc(C2=C(c3cn(C4CCN(Cc5ccccn5)CC4)c4ccccc34)C(=O)NC2=O)c2ccccc21 [Enzastaurin] + CNC(=O)c1cc(Oc2ccc(NC(=O)Nc3ccc(Cl)c(C(F)(F)F)c3)cc2)ccn1 [sorafenib] (first compound 0.8 µM, partner dose 0.4 µM) | 86.2
